In the supplement of paper PMC10849652 one finds log2 fold change data, which are given here for 33 targets.

Chains of the proteins cited; added tags and fusions are not shown. Lines headed by an entry give the natural chain unless they say otherwise; changes in a name come on top.
UniProt Q13371: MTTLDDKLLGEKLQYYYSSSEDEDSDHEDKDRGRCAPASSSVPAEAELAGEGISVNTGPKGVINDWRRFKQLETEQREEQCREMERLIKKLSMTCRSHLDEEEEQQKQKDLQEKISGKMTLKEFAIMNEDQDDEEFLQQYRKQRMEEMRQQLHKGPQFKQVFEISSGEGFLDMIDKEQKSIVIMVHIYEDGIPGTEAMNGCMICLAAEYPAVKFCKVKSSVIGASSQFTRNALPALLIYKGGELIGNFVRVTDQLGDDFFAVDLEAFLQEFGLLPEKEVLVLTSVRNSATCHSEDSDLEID
UniProt O14737: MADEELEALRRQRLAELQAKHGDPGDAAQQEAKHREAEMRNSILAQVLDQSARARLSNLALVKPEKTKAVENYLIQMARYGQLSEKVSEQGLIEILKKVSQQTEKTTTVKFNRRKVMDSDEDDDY
UniProt Q9BTK6, whole entry, looked up: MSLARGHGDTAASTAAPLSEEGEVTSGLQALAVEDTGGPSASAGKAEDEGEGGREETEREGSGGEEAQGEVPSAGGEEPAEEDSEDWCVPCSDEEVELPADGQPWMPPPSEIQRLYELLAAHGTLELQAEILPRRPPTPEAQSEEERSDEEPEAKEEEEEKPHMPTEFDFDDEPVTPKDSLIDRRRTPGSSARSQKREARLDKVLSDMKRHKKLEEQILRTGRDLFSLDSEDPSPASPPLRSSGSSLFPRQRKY
UniProt Q14690: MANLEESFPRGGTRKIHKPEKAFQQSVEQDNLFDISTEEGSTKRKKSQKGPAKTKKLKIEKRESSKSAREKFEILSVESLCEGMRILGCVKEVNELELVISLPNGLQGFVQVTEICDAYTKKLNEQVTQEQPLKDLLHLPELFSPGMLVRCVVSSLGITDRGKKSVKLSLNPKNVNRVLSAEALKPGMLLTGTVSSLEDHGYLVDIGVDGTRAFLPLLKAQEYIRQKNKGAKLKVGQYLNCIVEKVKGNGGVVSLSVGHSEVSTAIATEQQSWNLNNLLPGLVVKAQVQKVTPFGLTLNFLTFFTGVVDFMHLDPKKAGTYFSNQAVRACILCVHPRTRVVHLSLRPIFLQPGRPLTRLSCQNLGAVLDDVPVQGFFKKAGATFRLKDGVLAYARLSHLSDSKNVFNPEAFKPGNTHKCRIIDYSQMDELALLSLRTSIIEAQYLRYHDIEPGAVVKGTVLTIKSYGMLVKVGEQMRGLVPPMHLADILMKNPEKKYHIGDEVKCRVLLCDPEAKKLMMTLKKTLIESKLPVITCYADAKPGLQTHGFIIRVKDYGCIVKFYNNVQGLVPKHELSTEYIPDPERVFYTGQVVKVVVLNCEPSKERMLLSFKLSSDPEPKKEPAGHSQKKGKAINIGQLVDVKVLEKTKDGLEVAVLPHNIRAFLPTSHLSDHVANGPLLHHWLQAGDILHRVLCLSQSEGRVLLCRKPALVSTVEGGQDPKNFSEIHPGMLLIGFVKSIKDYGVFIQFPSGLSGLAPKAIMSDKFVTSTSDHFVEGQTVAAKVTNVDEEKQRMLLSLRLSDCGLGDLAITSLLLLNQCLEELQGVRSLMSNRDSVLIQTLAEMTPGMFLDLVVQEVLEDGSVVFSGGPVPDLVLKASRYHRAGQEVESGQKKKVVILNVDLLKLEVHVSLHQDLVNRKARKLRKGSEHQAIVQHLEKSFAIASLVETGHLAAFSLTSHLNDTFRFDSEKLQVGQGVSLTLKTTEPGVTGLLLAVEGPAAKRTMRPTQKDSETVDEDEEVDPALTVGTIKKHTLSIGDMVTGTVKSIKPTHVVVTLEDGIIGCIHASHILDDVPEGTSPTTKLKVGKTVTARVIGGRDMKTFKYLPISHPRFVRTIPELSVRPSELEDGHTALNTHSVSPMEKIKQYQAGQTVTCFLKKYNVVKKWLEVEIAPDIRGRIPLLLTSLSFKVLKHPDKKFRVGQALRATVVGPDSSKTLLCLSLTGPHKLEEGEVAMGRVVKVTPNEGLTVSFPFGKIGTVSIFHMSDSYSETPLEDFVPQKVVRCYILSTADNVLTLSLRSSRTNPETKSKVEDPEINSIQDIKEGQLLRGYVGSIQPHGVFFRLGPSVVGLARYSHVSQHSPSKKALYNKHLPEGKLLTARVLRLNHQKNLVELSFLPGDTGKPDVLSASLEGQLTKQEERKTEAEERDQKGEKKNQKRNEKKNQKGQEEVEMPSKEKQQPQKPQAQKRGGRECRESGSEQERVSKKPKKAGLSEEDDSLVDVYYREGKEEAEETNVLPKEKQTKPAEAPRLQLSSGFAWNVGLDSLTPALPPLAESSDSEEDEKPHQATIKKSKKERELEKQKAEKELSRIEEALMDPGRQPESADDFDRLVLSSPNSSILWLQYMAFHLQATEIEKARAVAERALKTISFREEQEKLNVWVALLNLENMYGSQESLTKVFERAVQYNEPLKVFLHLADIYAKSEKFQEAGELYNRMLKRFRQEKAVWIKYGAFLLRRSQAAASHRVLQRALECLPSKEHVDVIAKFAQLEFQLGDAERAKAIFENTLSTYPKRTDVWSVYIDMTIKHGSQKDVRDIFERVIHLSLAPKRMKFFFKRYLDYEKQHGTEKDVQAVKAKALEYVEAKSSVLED
UniProt Q96RG2: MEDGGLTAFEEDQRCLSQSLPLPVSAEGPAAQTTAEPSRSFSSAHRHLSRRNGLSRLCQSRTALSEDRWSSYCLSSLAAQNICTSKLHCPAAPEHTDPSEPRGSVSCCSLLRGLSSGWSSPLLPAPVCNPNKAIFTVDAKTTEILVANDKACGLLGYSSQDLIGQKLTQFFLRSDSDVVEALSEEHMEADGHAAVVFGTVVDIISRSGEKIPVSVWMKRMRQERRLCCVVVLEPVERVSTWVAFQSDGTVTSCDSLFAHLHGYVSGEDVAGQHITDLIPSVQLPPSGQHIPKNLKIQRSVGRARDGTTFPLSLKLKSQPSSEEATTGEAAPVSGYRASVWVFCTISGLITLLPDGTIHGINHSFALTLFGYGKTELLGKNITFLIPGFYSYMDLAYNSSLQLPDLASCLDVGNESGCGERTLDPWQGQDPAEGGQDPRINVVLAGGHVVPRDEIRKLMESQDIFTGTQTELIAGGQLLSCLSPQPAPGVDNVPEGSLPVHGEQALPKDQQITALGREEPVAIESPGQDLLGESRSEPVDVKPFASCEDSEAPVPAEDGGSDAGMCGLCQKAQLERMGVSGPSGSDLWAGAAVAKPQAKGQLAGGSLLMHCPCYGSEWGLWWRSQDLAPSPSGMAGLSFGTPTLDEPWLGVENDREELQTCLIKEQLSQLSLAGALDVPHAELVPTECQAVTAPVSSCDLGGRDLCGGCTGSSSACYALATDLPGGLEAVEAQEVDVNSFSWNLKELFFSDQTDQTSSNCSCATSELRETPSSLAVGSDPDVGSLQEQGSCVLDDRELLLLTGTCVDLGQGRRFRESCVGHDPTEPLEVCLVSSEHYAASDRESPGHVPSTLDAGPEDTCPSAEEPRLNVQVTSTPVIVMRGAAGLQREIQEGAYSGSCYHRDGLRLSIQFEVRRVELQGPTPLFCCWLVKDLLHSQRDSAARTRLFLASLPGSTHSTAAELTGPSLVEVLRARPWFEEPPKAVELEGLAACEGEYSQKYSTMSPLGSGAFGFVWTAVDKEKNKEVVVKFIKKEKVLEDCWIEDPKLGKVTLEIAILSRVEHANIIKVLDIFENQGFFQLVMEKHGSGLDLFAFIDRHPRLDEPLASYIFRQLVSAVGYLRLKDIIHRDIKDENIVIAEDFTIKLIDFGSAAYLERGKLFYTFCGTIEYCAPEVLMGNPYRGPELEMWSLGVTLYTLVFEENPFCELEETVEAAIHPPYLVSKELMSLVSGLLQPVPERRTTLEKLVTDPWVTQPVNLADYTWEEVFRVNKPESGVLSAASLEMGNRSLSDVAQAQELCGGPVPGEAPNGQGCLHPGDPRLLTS
UniProt P13667: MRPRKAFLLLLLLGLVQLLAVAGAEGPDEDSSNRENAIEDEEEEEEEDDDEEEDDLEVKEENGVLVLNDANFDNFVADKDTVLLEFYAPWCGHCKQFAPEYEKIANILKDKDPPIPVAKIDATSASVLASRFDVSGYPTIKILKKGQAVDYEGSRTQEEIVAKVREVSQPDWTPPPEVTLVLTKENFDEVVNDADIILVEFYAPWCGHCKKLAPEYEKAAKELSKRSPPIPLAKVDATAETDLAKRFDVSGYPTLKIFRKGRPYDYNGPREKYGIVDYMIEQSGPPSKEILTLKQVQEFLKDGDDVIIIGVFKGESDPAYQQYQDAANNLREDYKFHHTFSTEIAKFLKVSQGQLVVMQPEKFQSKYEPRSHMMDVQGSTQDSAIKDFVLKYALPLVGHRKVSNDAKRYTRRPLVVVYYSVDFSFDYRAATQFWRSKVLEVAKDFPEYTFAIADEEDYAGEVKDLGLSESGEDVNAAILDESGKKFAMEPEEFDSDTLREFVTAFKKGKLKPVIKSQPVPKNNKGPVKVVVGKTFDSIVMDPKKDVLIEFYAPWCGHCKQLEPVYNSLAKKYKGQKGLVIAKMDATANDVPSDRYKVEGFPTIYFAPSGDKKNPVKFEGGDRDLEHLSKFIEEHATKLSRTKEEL
UniProt Q9H2J4: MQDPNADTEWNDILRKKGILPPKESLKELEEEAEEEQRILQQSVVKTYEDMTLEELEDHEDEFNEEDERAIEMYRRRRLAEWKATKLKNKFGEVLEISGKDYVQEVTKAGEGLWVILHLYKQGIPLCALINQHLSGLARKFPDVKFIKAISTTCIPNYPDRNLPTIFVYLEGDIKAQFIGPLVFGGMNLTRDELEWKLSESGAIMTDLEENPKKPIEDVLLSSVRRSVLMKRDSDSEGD
UniProt P43034: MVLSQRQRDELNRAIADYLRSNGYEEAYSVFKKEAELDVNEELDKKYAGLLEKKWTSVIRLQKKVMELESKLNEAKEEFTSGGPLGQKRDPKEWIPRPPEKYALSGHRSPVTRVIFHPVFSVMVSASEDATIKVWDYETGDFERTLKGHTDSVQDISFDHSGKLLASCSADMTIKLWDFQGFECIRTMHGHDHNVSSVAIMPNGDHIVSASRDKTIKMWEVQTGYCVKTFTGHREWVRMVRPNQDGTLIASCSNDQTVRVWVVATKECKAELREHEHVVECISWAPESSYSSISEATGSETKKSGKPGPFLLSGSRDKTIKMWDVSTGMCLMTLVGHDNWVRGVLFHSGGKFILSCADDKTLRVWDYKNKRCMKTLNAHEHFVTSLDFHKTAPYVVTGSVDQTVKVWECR
UniProt P61457: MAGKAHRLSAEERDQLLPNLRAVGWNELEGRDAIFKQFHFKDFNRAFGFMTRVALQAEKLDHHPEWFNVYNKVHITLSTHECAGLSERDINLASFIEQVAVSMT
UniProt O43933: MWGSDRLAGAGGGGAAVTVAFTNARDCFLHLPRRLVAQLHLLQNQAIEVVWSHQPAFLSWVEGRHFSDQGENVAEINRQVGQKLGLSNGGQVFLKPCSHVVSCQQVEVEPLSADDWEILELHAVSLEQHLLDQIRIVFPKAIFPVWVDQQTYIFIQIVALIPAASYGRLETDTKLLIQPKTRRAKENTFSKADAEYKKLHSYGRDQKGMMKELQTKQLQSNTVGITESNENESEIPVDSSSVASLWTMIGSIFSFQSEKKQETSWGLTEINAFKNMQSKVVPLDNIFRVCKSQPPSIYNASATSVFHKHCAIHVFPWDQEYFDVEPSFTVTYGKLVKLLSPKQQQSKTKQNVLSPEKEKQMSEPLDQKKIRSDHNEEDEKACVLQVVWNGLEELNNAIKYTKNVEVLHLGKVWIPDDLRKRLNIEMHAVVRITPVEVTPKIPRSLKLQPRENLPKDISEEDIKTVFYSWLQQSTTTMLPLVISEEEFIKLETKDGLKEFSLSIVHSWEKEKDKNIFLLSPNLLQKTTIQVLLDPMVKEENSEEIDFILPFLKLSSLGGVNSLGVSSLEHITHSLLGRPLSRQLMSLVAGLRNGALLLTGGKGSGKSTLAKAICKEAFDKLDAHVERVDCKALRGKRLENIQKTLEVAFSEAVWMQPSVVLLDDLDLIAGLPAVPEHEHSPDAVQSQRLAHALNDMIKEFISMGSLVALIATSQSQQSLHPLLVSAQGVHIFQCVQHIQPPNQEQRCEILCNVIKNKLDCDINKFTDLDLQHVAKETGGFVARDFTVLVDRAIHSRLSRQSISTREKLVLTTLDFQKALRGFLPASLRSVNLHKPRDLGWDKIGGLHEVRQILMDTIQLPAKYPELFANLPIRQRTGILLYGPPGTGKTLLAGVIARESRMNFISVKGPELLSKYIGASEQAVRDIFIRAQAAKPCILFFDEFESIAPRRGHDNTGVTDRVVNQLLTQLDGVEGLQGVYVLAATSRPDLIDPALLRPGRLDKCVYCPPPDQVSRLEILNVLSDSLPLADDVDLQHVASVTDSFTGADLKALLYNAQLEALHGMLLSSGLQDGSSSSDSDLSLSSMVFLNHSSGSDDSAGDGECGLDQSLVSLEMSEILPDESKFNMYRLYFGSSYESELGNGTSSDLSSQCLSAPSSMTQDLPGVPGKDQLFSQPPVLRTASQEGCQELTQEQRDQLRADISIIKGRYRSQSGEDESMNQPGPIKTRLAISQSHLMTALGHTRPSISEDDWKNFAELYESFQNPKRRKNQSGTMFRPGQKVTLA

The list shows a part of the results.

Compound in one experiment: CCCCN(Cc1ccc(C(=O)NO)cc1)C(=O)Nc1ccccc1 [Nexturastat A]
The experiment in a line: log2 fold change, soluble protein after heating vs DMSO (PISA); higher = thermal stabilisation; K562 cells, 10 uM, 30 min; active = over 0.2 and 3.5 SD of the protein, either way, in both replicates (recomputed). The method in brief:
(§1)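 K562 cells at 2×10^6 cells/mL were given 10 μM compound for 30 min. Aliquots then went through 3 min of heating across 48°C-58°C, were pooled, and were extracted in PBS with 0.5% NP-40 at 4°C, and the supernatant after 21,000xg for 90 min was quantified by TMTpro 16plex LC-MS/MS with channel sums equalised. Thermal stability relative to control samples, from duplicates, is given as log2 fold change.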
On to PCYOX1 (UniProt Q9UHG3), for which the log2 fold change was inactive: -0.075.
On the same count and under the same terms, then PDCL (UniProt Q13371), with inactive: -0.038; and PDCD5 (UniProt O14737), with inactive: -0.107.
On the same count and under the same terms, the value for PAGR1 (UniProt Q9BTK6) was inactive: -0.047.
Regarding PDCD11 (UniProt Q14690), the log2 fold change was inactive: -0.195.
For PDSS1 (UniProt Q5T2R2), the log2 fold change was inactive: -0.18.
Take PAK3 isoform 3 (UniProt O75914): the log2 fold change was inactive: -0.093.
Regarding PAIP2 (UniProt Q9BPZ3), the log2 fold change is inactive: 0.178.
Same read-out and setting: the value for PDF (UniProt Q9HBH1) was inactive: -0.037.
On to PANX1 (UniProt Q96RD7), for which the log2 fold change is inactive: -0.126.
Take PDHX (UniProt O00330): the log2 fold change was inactive: 0.074.
Take PDHB (UniProt P11177): the log2 fold change is inactive: 0.185.
PAK2 (UniProt Q13177): the log2 fold change is inactive: -0.09.
PEX14 (UniProt O75381): the log2 fold change is inactive: -0.052.
Same read-out and setting: then PASK (UniProt Q96RG2), with inactive: -0.074; and PCSK9 (UniProt Q8NBP7), with inactive: 0.048.
In the case of PAPSS1 (UniProt O43252), the log2 fold change is inactive: -0.002.
The same measure, in the same setting: the value for PDIA4 (UniProt P13667) was inactive: 0.013; that for PABPC4 isoform 3 (UniProt Q13310) was inactive: 0.122.
For PCBD2 (UniProt Q9H0N5), the log2 fold change is inactive: -0.062.
The same measure, in the same setting: then PDCL3 (UniProt Q9H2J4), with inactive: 0.038.
Turning to PDLIM4 (UniProt P50479), the log2 fold change was inactive: -0.022.
Still for that read-out and setting: the value for PCNA (UniProt P12004) was inactive: -0.083; that for PDXDC1 (UniProt Q6P996) was inactive: 0.355; that for PAFAH1B1 (UniProt P43034) was inactive: -0.045.
As for PDZD8 (UniProt Q8NEN9), the log2 fold change is inactive: -0.012.
The same measure, in the same setting: then PEX12 (UniProt O00623), with inactive: -0.07.
Regarding PCBD1 (UniProt P61457), the log2 fold change is inactive: -0.202.
For the target PDIA5 (UniProt Q14554), the log2 fold change was inactive: 0.135.
On to PDXK (UniProt O00764), for which the log2 fold change is inactive: -0.049.
Still for that read-out and setting: the value for PBLD (UniProt P30039) was inactive: 0.044; that for PEX1 (UniProt O43933) was inactive: 0.075.
Same read-out and setting: the value for PANK2 (UniProt Q9BZ23) was inactive: -0.029.

Compound in another experiment: CCCS(=O)(=O)Nc1ccc(F)c(C(=O)c2c[nH]c3ncc(-c4ccc(Cl)cc4)cc23)c1F [vemurafenib]
The description is as above. In short, it runs like this: as §1
Regarding PCYOX1 (UniProt Q9UHG3), the log2 fold change is inactive: -0.014.
In the case of PDCL (UniProt Q13371), the log2 fold change was inactive: 0.
Still for that read-out and setting: then PDCD5 (UniProt O14737), with inactive: -0.009; and PAGR1 (UniProt Q9BTK6), with inactive: 0.015; and PDCD11 (UniProt Q14690), with inactive: -0.044.
Still for that read-out and setting: then PDSS1 (UniProt Q5T2R2), with inactive: 0.01; and PAK3 isoform 3 (UniProt O75914), with inactive: 0.05; and PAIP2 (UniProt Q9BPZ3), with inactive: 0.105.
Same read-out and setting: the value for PDF (UniProt Q9HBH1) was inactive: 0.059; that for PANX1 (UniProt Q96RD7) was inactive: -0.04; that for PDHX (UniProt O00330) was inactive: -0.068.
Take PDHB (UniProt P11177): the log2 fold change is inactive: 0.006.
On the same count and under the same terms, then PAK2 (UniProt Q13177), with inactive: 0.013; and PEX14 (UniProt O75381), with inactive: 0.033; and PASK (UniProt Q96RG2), with inactive: -0.061.
The same measure, in the same setting: the value for PCSK9 (UniProt Q8NBP7) was inactive: -0.119; that for PAPSS1 (UniProt O43252) was inactive: 0.006; that for PDIA4 (UniProt P13667) was inactive: -0.027.
As to PABPC4 isoform 3 (UniProt Q13310), the log2 fold change was inactive: 0.015.
With PCBD2 (UniProt Q9H0N5), the log2 fold change was inactive: -0.048.
Consider PDCL3 (UniProt Q9H2J4), for which the log2 fold change was inactive: -0.003.
On to PDLIM4 (UniProt P50479), for which the log2 fold change is inactive: 0.004.
Still for that read-out and setting: the value for PCNA (UniProt P12004) was inactive: 0.007.
In the case of PDXDC1 (UniProt Q6P996), the log2 fold change is inactive: -0.175.
On the same count and under the same terms, then PAFAH1B1 (UniProt P43034), with inactive: 0.01; and PDZD8 (UniProt Q8NEN9), with inactive: 0.002; and PEX12 (UniProt O00623), with inactive: -0.066.
On the same count and under the same terms, then PCBD1 (UniProt P61457), with inactive: -0.074; and PDIA5 (UniProt Q14554), with inactive: -0.022.
For the target PDXK (UniProt O00764), the log2 fold change was inactive: 0.005.
As to PBLD (UniProt P30039), the log2 fold change was inactive: 0.039.
Still for that read-out and setting: then PEX1 (UniProt O43933), with inactive: 0.035; and PANK2 (UniProt Q9BZ23), with inactive: 0.016.

Compound in a further experiment: CCCS(=O)(=O)Nc1ccc(F)c(C(=O)c2c[nH]c3ncc(Cl)cc23)c1F
Described as above. The method in brief:
as §1
As for PCYOX1 (UniProt Q9UHG3), the log2 fold change was inactive: 0.018.
Take PDCL (UniProt Q13371): the log2 fold change was inactive: -0.034.
On the same count and under the same terms, then PDCD5 (UniProt O14737), with inactive: -0.046; and PAGR1 (UniProt Q9BTK6), with inactive: -0.038; and PDCD11 (UniProt Q14690), with inactive: -0.099.
For the target PDSS1 (UniProt Q5T2R2), the log2 fold change was inactive: 0.029.
Still for that read-out and setting: then PAK3 isoform 3 (UniProt O75914), with inactive: 0.066.
The same measure, in the same setting: then PAIP2 (UniProt Q9BPZ3), with inactive: -0.003; and PDF (UniProt Q9HBH1), with inactive: 0.031; and PANX1 (UniProt Q96RD7), with inactive: 0.019.
On the same count and under the same terms, then PDHX (UniProt O00330), with inactive: -0.062.
Take PDHB (UniProt P11177): the log2 fold change is inactive: -0.06.
Same read-out and setting: then PAK2 (UniProt Q13177), with inactive: 0.029; and PEX14 (UniProt O75381), with inactive: 0.006.
The same measure, in the same setting: then PASK (UniProt Q96RG2), with inactive: 0.089; and PCSK9 (UniProt Q8NBP7), with inactive: -0.053; and PAPSS1 (UniProt O43252), with inactive: -0.007.
In the case of PDIA4 (UniProt P13667), the log2 fold change was inactive: -0.042.
Take PABPC4 isoform 3 (UniProt Q13310): the log2 fold change was inactive: 0.009.
PCBD2 (UniProt Q9H0N5): the log2 fold change is inactive: -0.033.
Still for that read-out and setting: the value for PDCL3 (UniProt Q9H2J4) was inactive: 0.057.
On the same count and under the same terms, the value for PDLIM4 (UniProt P50479) was inactive: -0.01; that for PCNA (UniProt P12004) was inactive: 0.006; that for PDXDC1 (UniProt Q6P996) was inactive: 0.062.
Still for that read-out and setting: then PAFAH1B1 (UniProt P43034), with inactive: 0; and PDZD8 (UniProt Q8NEN9), with inactive: -0.03.
For PEX12 (UniProt O00623), the log2 fold change was inactive: -0.031.
The same measure, in the same setting: then PCBD1 (UniProt P61457), with inactive: 0.002; and PDIA5 (UniProt Q14554), with inactive: -0.042.
The same measure, in the same setting: the value for PDXK (UniProt O00764) was inactive: 0.007; that for PBLD (UniProt P30039) was inactive: -0.034.
Same read-out and setting: the value for PEX1 (UniProt O43933) was inactive: -0.04; that for PANK2 (UniProt Q9BZ23) was inactive: 0.012.
